## Percent effect of library compounds

Chains of the proteins cited; added tags and fusions are not shown. Residues count along the entry.
UniProt I6X8D2, whole entry: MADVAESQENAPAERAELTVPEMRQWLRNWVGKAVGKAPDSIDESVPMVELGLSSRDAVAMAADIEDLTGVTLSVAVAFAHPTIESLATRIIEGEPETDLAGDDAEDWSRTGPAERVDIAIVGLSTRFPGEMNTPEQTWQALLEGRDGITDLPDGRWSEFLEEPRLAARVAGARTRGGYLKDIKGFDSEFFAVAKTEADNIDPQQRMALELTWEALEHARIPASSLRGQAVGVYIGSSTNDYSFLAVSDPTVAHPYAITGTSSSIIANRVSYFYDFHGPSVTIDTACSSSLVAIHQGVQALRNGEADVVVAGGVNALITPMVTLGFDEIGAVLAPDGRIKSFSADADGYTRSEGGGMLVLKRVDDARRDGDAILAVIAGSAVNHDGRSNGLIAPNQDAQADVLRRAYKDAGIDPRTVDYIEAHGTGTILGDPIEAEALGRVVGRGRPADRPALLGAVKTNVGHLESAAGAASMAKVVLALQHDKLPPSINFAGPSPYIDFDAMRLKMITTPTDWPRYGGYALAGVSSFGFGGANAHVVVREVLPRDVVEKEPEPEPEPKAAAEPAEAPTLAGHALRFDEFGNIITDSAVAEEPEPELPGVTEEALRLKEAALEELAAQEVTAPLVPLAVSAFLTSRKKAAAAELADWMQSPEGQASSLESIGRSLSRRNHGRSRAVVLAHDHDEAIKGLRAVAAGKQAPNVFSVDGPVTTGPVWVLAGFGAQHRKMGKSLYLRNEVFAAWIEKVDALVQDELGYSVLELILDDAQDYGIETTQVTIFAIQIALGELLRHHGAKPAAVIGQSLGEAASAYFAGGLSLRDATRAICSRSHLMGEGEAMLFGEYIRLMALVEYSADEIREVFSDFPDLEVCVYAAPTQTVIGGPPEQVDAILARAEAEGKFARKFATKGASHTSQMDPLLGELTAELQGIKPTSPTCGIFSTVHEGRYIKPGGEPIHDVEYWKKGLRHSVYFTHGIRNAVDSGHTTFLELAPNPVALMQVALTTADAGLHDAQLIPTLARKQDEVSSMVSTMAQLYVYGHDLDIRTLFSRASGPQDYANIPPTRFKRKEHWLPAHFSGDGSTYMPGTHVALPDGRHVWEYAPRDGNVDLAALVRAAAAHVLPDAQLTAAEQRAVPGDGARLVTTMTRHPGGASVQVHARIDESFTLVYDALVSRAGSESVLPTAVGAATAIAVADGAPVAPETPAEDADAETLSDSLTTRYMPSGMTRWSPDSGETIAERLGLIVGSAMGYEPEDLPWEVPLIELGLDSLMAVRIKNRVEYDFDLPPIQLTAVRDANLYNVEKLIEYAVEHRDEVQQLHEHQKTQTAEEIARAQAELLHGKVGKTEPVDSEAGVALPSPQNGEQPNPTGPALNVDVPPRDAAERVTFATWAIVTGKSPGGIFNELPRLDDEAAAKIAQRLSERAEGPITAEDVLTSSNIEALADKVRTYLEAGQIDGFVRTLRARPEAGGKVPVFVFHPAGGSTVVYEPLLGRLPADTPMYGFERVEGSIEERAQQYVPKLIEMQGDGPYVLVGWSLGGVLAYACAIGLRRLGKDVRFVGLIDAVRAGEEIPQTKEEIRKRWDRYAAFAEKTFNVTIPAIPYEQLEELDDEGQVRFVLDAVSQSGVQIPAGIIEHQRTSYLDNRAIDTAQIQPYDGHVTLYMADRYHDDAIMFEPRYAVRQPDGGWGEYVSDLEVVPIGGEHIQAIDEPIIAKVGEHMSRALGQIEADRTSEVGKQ
UniProt P9WNZ1, whole entry: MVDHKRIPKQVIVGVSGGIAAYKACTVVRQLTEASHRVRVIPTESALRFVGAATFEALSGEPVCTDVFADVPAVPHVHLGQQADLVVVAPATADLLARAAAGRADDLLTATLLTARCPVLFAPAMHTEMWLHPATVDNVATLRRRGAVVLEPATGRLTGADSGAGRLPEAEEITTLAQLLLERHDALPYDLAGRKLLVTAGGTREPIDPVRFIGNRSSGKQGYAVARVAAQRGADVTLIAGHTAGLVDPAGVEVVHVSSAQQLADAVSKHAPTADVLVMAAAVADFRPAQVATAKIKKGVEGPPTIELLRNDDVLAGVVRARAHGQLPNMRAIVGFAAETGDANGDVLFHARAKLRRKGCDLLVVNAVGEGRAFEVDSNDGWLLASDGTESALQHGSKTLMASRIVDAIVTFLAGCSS
UniProt P9WFT3, whole entry: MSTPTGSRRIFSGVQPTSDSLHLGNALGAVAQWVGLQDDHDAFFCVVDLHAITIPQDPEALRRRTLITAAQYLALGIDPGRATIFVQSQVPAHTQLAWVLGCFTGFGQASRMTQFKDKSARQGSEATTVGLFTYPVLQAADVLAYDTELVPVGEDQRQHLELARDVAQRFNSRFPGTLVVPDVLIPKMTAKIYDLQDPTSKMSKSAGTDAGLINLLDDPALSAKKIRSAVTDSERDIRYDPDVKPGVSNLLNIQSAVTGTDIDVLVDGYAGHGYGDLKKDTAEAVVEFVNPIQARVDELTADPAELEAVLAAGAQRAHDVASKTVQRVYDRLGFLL
UniProt A4I591, 1-473: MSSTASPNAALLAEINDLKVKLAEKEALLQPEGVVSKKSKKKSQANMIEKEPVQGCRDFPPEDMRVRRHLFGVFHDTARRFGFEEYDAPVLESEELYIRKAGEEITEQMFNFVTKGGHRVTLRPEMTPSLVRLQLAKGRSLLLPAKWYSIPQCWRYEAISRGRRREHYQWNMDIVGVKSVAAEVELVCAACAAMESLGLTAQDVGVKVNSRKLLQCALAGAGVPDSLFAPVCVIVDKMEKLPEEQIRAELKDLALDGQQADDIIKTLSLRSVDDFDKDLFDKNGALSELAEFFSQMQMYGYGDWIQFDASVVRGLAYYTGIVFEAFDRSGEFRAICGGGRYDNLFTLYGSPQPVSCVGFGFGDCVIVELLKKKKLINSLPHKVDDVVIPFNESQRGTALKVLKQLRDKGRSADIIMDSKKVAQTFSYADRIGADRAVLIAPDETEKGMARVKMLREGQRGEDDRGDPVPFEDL
UniProt Q4DA54, 1-478: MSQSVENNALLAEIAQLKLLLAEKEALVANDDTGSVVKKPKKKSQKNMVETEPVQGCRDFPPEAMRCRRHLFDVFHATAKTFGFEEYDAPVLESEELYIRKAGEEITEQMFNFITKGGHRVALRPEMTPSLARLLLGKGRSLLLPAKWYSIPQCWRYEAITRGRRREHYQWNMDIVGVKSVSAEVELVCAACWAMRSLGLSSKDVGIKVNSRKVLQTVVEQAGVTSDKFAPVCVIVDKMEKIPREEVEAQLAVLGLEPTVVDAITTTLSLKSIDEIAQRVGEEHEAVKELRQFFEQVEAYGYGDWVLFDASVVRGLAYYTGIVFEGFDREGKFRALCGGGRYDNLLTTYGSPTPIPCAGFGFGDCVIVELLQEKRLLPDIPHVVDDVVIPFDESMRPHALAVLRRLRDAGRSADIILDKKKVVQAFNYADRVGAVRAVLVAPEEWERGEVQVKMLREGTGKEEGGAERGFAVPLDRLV

Measurements from “University of Dundee, Small-Polar-MMV Screening Library” (2021), ChEMBL document CHEMBL3988442.

The filed quantity is “Percent Effect” (%).
How 0% and 100% were set is not recorded. Most values in the screen are low, and negative values occur.
Compounds were drawn at random from those tested, without regard to their results.
A dash means the value is not listed here; it may have been measured.

Pks13 thioesterase: 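Enzyme assay of the thioesterase domain of polyketide synthase 13; the read-out is not stated. Target: Polyketide synthase Pks13, Mycobacterium tuberculosis (UniProt I6X8D2). Compounds at 30 µM. The record gives no direction; the compounds picked for IC50 retests had high values, so higher reads as stronger inhibition. About 67,000 compounds were tested under these conditions; 0.46% (about 300) showed 50% or more at least once.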
Toxoplasma: 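Assay of Toxoplasma gondii numbers, read through their beta-galactosidase reporter with a colour substrate. Concentration: 10 µM. The record gives no direction; the compounds picked for IC50 retests had high values, so higher reads as fewer parasites. Of about 67,000 compounds tested this way, about 260 (0.38%) reached 50% or more in at least one test.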
CoaBC: 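Enzyme assay of CoaBC with a phosphate dye (Biomol Green) read at 650 nm. Target: Coenzyme A biosynthesis protein CoaBC, Mycobacterium tuberculosis (UniProt P9WNZ1). Tested at 30 µM. Higher reads as stronger inhibition, judged from the few compounds that gave an IC50. Most strong results did not repeat in a second test. Of about 67,000 compounds tested this way, about 40 (0.06%) reached 50% or more in at least one test.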
MtTrpRS: 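Tryptophan-tRNA ligase, Mycobacterium tuberculosis (UniProt P9WFT3). Enzyme assay of tryptophanyl-tRNA synthetase; the read-out is not stated. Compounds at 10 µM. Higher most likely means stronger inhibition; the record gives no direction and few retests gave an IC50. About 65,000 compounds were tested under these conditions; 0.098% (about 64) showed 50% or more at least once.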
LiHisRS: 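Enzyme assay of histidyl-tRNA synthetase; the read-out is not stated. Target: Histidine-tRNA ligase, Leishmania infantum (UniProt A4I591). Tested at 30 µM. Higher reads as stronger inhibition (inferred: compounds with an IC50 in retests scored well above the rest). The assay is labelled LdHisRS but filed under L. infantum. Size under these conditions: about 69,000 compounds, about 410 of them at 50% or above in at least one test.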
TcHisRS: 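Histidine-tRNA ligase, Trypanosoma cruzi CL Brener (UniProt Q4DA54). Enzyme assay of histidyl-tRNA synthetase; the read-out is not stated. Tested at 30 µM. Higher reads as stronger inhibition (inferred: compounds with an IC50 in retests scored well above the rest). About 69,000 compounds were tested under these conditions; 0.045% (about 31) showed 50% or more at least once.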

SMILES | Pks13 thioesterase | Toxoplasma | CoaBC | MtTrpRS | LiHisRS | TcHisRS
O=C1N[C@@H]2CCN(C(=O)c3ccccc3)[C@@H]2C(=O)N1Cc1ccccc1 | -34.39% | - | 3.837% | 0.9789% | 22.22% | 10.89%
Cn1nc2c(cc1=O)CN(Cc1nc(C3CC3)no1)CC2 | 0.6174% | 3.03% | 6.526% | 4.617% | 101.9% | 9.167%
COc1ccc(S(=O)(=O)NCC(c2cccn2C)N(C)C)cc1F (stereo not given) | -7.497% | 3.665% | -4.37% | 1.564% | 14.88% | 2.041%
CC(C)N(C)CC(=O)NC1CCc2nccn2C1 (stereo not given) | -14.76% | 0.9912% | -4.911% | 0.8881% | -6.796% | -1.245%
Cc1c(C(=O)O)oc2ccc(I)cc12 | 39.24% | -21.16% | -2.184% | - | 5.941% | 4.545%
Cc1cc(CCC(=O)Nc2nncs2)nc(C2CCCN2)n1.Cl (stereo not given) | - | 20.14% | - | - | - | -
CN(C)C(=O)CN1CCC2(CC1)CC(=O)c1ccc3ccccc3c1O2 | 26.04% | -19.39% | 4.612% | - | 13.86% | -3.409%
O=C(NCCCn1nc2ccccn2c1=O)NCCC1CCC1 | -8.672% | -28.73% | -2.405% | 2.039% | 13.25% | 6.098%
Cc1noc(C)c1CN(Cc1cccnc1)C1CN2CCC1CC2 (stereo not given) | -11.7% | -1.183% | -3.329% | -5.556% | 12.9% | -13.16%
CCc1ncnc2c1CCN(CC(=O)N(C)C)CC2 | -10.85% | - | 2.97% | - | 2.703% | 3.315%
O=C(CCSc1ccccc1F)N1CCN(c2cnccn2)CC1 | 6.341% | -17.08% | 0.8537% | 0% | -6.593% | 0.6024%
CSc1nccn1-c1cccc(C(=O)NCC(F)(F)F)c1 | -5.32% | -3.661% | 1.149% | -3.302% | 15.18% | 2.89%
Cc1nc(CNCC2CCCN2c2cccnn2)no1 (stereo not given) | -21.7% | 2.067% | -2.564% | 2.424% | 24% | 6.415%
CN(C)C(=O)CO[C@H]1CN(Cc2ccc3c(c2)OCO3)[C@@H]2COC[C@H]12 | -37.2% | - | 4.146% | - | 13.21% | 14.44%
Cc1n[nH]c(C2CN(C(=O)c3cc(C)sc3C)CCO2)n1 (stereo not given) | -37.68% | 6.043% | - | 2.993% | 31.43% | 9.091%
COc1ccc(CNC2CCN(c3ccccc3)C2)c(OC)c1OC (stereo not given) | -3.949% | -1.123% | -10.41% | 0.7261% | 9.649% | -15.52%
O=C1CC2(CCN(Cc3ccccn3)C2)CN1c1cccnc1 (stereo not given) | -14.45% | - | 0.9772% | 1.953% | 25.71% | 10.78%
N#Cc1ccc(N2CCC3(CC2)CC(N2CCOCC2)CO3)cc1.O=C(O)C(F)(F)F (stereo not given) | - | 11.26% | - | - | - | -
CC(=O)N1CCC(C(=O)c2cnn(-c3ccccc3)c2N)C1 (stereo not given) | -3.63% | 13.94% | 4.993% | -8.155% | 13.04% | 4.545%
Cc1cnnn1Cc1nnn2c1CN(Cc1ccccn1)CCC2 | -2.777% | - | 2.5% | 0.3526% | 7.692% | 4.813%
Cc1cccc(N2Cc3nc(=O)n(Cc4cccc(F)c4)n3C2=O)c1 | -10.85% | 0.9434% | 1.574% | -1.4% | 14.13% | -13.86%
O=C(CCc1cccnc1)N1CCCCC1c1ccn2ccnc2n1 (stereo not given) | 47.2% | 7.809% | 3.874% | - | 16.49% | 5.556%
CC(O)CN(Cc1cccc(C(=O)N(C)C)c1)c1ccccc1 (stereo not given) | -19.47% | -0.1873% | 4.348% | 1.445% | 3.665% | -0.5348%
Cc1n[nH]c(C2CN(CCCOc3ccc(F)cc3)CCO2)n1 (stereo not given) | -6.395% | 10.68% | 4.645% | -2.534% | 10.96% | 5.464%
CC(C)NC(=O)CC1COC2(CCN(Cc3cccs3)CC2)C1 (stereo not given) | -4.112% | - | 3.628% | -0.9924% | 17.07% | 7.519%
Cn1nc(CN2CCCCC2)c2c1CN(C(=O)Nc1cccc(F)c1)C2 | 1.792% | 2.651% | -16.25% | -1.34% | 12.82% | 4.813%
Cc1ccccc1CNC(=O)N1CC[C@@H]2CN(C)S(=O)(=O)[C@@H]2CC1 | -56.29% | - | -0.7634% | -2.991% | -1.942% | -2.913%
CSCCC(C)NC(=O)N1CCSC(C)(C)C1 (stereo not given) | -36.09% | -8.523% | 13.31% | 8.353% | 14.04% | 2.521%
COc1c(C)cnc(CN2CCCC(Cn3nc(C)nc3C)C2)c1C (stereo not given) | -15.12% | -0.7952% | 1.05% | 2.98% | 15.25% | 6.857%
Cc1cnc(C(=O)N2CCCC(n3cccn3)C2)cn1 (stereo not given) | -13.53% | 1.12% | 2.477% | 1.827% | 4.386% | 6.358%
Cc1ccccc1C1CCCN1Cc1nc2c(cnn2C)c(=O)[nH]1 (stereo not given) | 3.125% | 3.733% | 3.571% | -5.49% | 12.73% | 2.924%
Cc1nccn1CCCn1cncc1-c1ccc2c(c1)CCC(C)N2C (stereo not given) | -19.1% | - | 15.07% | 6.537% | 83.22% | 45.43%
O=C(c1ccncc1)N1CCCn2c(CN3CCCC3)nnc2C1 | -11.03% | - | 2.843% | -1.289% | 17% | 2.041%
Cc1nc(N2CCCN(C(=O)c3ccsc3)CC2)c2cnn(C)c2n1 | -4.013% | -47.62% | -4.825% | -6.772% | 16.07% | 6.395%
O=C(Cc1ccc(F)cc1)NCc1ccc(C(=O)O)o1 | -17.3% | -11.28% | 3.187% | -4.107% | 2.74% | 3.158%
COc1cncc(N2CCN(Cc3ccncc3Cl)CC2)n1 | 4.868% | -1.016% | 1.768% | -0.5187% | 13.16% | 10.34%
CC(C)CCc1noc(CN2CCCC(CNS(N)(=O)=O)C2)n1 (stereo not given) | 12.38% | -15.87% | -0.2475% | -3.804% | 4% | 3.614%
Cc1cc(CN2CC[C@@H]3[C@@H](CCC(=O)N3CCc3c[nH]cn3)C2)oc1C | -32.94% | - | 4.485% | -2.694% | 12.9% | 3.061%
[H][C@@]12CCN(c3ncccn3)[C@@]1([H])CCN2Cc1cccs1 | - | 5.921% | - | - | - | -
Cc1cc(CS(=O)(=O)NCC2CCCCC2)on1 | -0.4792% | 3.794% | -2.746% | 0.6552% | -18.31% | 4.972%
CCN(C)C(=O)CCN(C)Cc1cnc(C)s1 | -32.46% | -7.447% | 2.155% | 1.852% | 11.39% | 0.431%
CCS(=O)(=O)Nc1ccn(Cc2c(F)cccc2Cl)n1 | -3.909% | -42.56% | 2.551% | 1.91% | 6.173% | 4.911%
Cn1cc(-c2csc(N3CCCCCC3)n2)cn1 | -19.19% | -28.12% | 3.353% | 0.09234% | 39.39% | 2.116%
CCOCCN1CCc2cncnc2C1 | 20.96% | - | 0.369% | 4.471% | 32.26% | 16.09%
COC[C@@H]1CCC[C@@]12CN(Cc1ccc(C)s1)CCO2 | 7.002% | - | 3.258% | 1.936% | 25.64% | -14.63%
CCOc1ncccc1NC(=O)c1cccs1 | -11.37% | -19.31% | 3.571% | 0.8911% | 23.46% | 2.232%
c1coc(CN2CCC(c3ccc4c(c3)OCO4)CC2)c1 | -3.652% | - | -6.57% | -0.9675% | -2.899% | -0.7576%
CN(C)CCN(Cc1cccnc1)C(=O)c1ccn(-c2ccccc2)n1 | -21.96% | 1.243% | -14.05% | -2.998% | 2.667% | 10.33%
COc1ccc(OC)c(C2CCN(CC(C)(C)N3CCOCC3)C2)c1 (stereo not given) | -31.76% | -1.467% | -21.05% | 0.3276% | 12.68% | 8.287%
O=C(Nc1cccnc1-n1cncn1)N(C1CCCC1)C1CC1 | -18.08% | -0.02959% | -4.512% | 2.781% | 17.58% | 5.422%
C=C/C=c1\c(=C/C)oc2c(NCc3ccccc3)nc(C)nc12 | -2.012% | 54.55% | 4.337% | 2.913% | 18.68% | 14.85%